Results published in publication PMC7865655 (Molecules, 2021).

test: peptide synthesis; conditions: conjugation step

First: PEPTIDE1{[K(trz-BODIPY1)].L.A.R.L.L.T.[am]}$$$$V2.0
Second: PEPTIDE1{[K(trz-BODIPY2)].[dL].[dA].[dR].[dL].[dL].[dT]}$PEPTIDE1,PEPTIDE1,1:R1-7:R2$$$V2.0
The conjugation yield of the first is higher: 82% for the first, 80% for the second.

In the case of “1,3,7-trimethyl-5-indolylstyryl-2,6-diethyl-8-(4-phenoxymethyltriazole K(N3)LARLLT)-BODIPY”, the conjugation yield is reported as 70%.

Some peptides are written in HELM: one residue between dots, names in brackets for other building blocks, links after the first $.
